## Screening data, single-dose tests

The values are deposited in ChEMBL (CHEMBL3988442, “University of Dundee, Small-Polar-MMV Screening Library” (2021)).

Mtb glucose medium: 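Growth of Mycobacterium tuberculosis over 3 days (7H9 medium with glucose and tyloxapol); the read-out is not stated. Concentration: 50 µM. Higher reads as more growth inhibition (inferred: compounds with an IC50 in retests scored well above the rest). About 69,000 compounds were tested under these conditions; 1.1% (about 760) showed 50% or more at least once.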
Mtb cholesterol medium: 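Growth of Mycobacterium tuberculosis over 4 days (cholesterol / DPPC medium with tyloxapol); the read-out is not stated. Compounds at 50 µM. The record gives no direction; compounds that gave an IC50 in retests scored well above the rest, so higher reads as more growth inhibition. Of about 69,000 compounds tested this way, about 370 (0.54%) reached 50% or more in at least one test.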

The filed quantity is “Percent Effect” (%). How 0% and 100% were set is not recorded. Most values in the screen are low, and negative values occur. This is an unselected part of the compounds tested. Two or more numbers in one place are separate tests of the same structure; such repeats can differ widely. A dash means the value is not listed here; it may have been measured.

Compound | Mtb glucose medium | Mtb cholesterol medium
CC(N)Cc1ccccc1Sc1ccccc1.O=C(O)/C=C\C(=O)O (centres unmarked) | 15.82 & 21.36 | -25
[H][C@@]12CS(=O)(=O)C[C@]1([H])N(Cc1cnn(-c3ccc(F)cc3)c1)CCN2C | -1.989 | -11.38
Cc1cc(C)n(C2CN(CC(=O)N(C)Cc3ccco3)C2)n1 | -2.426 | -0.9709 & -1.481
CCc1ccc(OCC(O)CN2CCN(CC)CC2)cc1 (centres unmarked) | -30.97 | -2.917
c1cc(CCNc2ccc(CC3CCNC3)cn2)ccn1 (centres unmarked) | 12.36 | -0.9369
C[C@]1(O)CN(CC(=O)N2CCCC2)CC[C@@H]1Oc1cccc(F)c1 | -4.327 | 1.303
CN(C)c1cc(C(=O)N2CCCN(Cc3nccn3C)CC2)ccn1 | -19.01 | -12.5
Cn1cc(CN2CCc3ncn(C)c3C2COCc2ccccc2)cn1 (centres unmarked) | 4.814 & -3.187 | 9.146
CC(C)NC(=O)N1CCN(C(=O)c2ccco2)CC2(CC(=O)N(C)C2)C1 (centres unmarked) | 16.23 | -7.776
O=C(CCCN1CCCCC1)N1CCC(c2nnc[nH]2)CC1 | 0.9759 | -23.33
CCc1ccsc1C(=O)N1CCN(CCN2C(=O)CCC2=O)CC1 | -20.87 | -15.31
O=C(c1cc(=O)[nH][nH]1)N1CCCC2(CCC(=O)N(C3CCCC3)C2)C1 (centres unmarked) | -17.33 | -3.096
CC(C)(C)c1ccc(-n2ncc3c2CCCC3N)cc1 (centres unmarked) | 52.98 | 26.76
CC(C)c1noc(CN2CCOCC2C)n1 (centres unmarked) | 21.4 | 10.04
c1ccc(C[C@H]2[C@H](N3CCOCC3)CCN2Cc2cccnc2)cc1 | -8.756 | 1.046
Cc1nc(-c2ccco2)ccc1C(=O)NCCCN1CCOCC1 | -7.173 | -2.688
CN(C)C(=O)N1CC(C(=O)NCC2CC2)C2(CCOCC2)C1 (centres unmarked) | -22.02 | -3.594
Cc1cncc(C(=O)N2CCCCC2c2nc(C)cs2)c1 (centres unmarked) | 0.278 | 0.5828
COc1ccccc1C(C)N1CCN(S(=O)(=O)N(C)C)CC1 (centres unmarked) | -2.306 & -13.37 | -2.406
CCN(CC)CCn1cc(NC2CCN(C(C)(C)C)CC2)cn1 | -14.56 | -19.35
CCc1ccc(-c2nn3c(nc2=O)-c2ccccc2NC3C(=O)O)cc1 (centres unmarked) | 15.88 | -5.616
CC(=O)N1CCN(Cc2ccccn2)CC2(CC(=O)N(C)C2)C1.O=C(O)C(F)(F)F.O=C(O)C(F)(F)F (centres unmarked) | 13.63 | -5.961
OCCN1CCC(CNCc2ccc(Br)cc2)CC1 | -2.795 | 11.57 & 3.407
Cc1ccc(C(=O)N(C)Cc2c(C)noc2C)c(=O)[nH]1 | -7.563 | -3.805
O=C(Nc1ccccc1F)N(CCO)CCOCC(F)(F)F | -3.992 | -1.454
Cc1cccc(OCCC(=O)N(C)CCNS(C)(=O)=O)c1C | 2.505 & 4.236 | 6.805
COCCCNC(=O)CN1CCSC(c2ccccc2)C1 (centres unmarked) | 35.53 | -7.007
Cc1nc(CN)cc(N2CCC(O)(c3ccc(Cl)cc3)CC2)n1 | 22.54 | -2.399
Cc1cccc(NC(=O)CCC(=O)NCC(=O)c2ccccc2F)c1 | 1.197 | -10.35
Oc1nc(N2CCCC2)nc2nccc(-c3ccccn3)c12 | 19.55 | -5.599
CC(O)c1cnn(-c2ccccc2)c1 (centres unmarked) | 23.68 | -12.06
[H][C@@]12CN(c3cc(OC)ncn3)C[C@H](C(=O)NC3CC3)[C@]1([H])CCO2 | -10.26 | 6.761
CC(C)[C@@H]1CN(C(=O)C2(c3ccccc3)CC2)C[C@H]1C(=O)O | -1.899 & 4.996 | 0.3016
CC[C@H](C)[C@@H](CO)NC(C)Cc1ccc(C)cc1 (some centres unmarked) | 57.37 | 27.08
CN(C)CCOCC1CN(C(=O)[C@H]2CCCO2)Cc2ccnn2C1 (some centres unmarked) | -3.41 | 4.443
O=C(NCC1Cn2nnc(-c3ccsc3)c2CO1)N1CCCC1 (centres unmarked) | 1.01 | -5.01
[H][C@@]12COC[C@]1(C(=O)NC1CC(F)(F)C1)CN(Cc1ccsc1)C2 | 5.17 | -22.89
O=C(O)C(F)(F)F.O=C(O)C(F)(F)F.[H][C@]12CCN(c3ncc(F)cn3)[C@@]1([H])CCC(COCc1cccnc1)O2 (some centres unmarked) | 10.65 | -8.209
CCN(CC)S(=O)(=O)N1CCc2nc(C3CCNCC3)ncc2C1.Cl | 36.36 | 11.38
COCCc1noc(-c2cn(Cc3ccccc3C)nn2)n1 | 16.86 & 10.92 | 32.6
Cc1cnn(C2CCCN(C(=O)c3ccc(-n4ccnc4)cc3)C2)c1 (centres unmarked) | -4.977 | -0.2091
O=C(Nc1ccc(F)cc1F)Nc1c[nH]c(=O)[nH]c1=O | -10.87 | -10.25
Cn1ncnc1CNc1ccccc1C(=O)NC(C)(C)C | -9.005 | -5.773
Cc1ccc(CNCC2Cn3nnc(-c4cnn(C)c4)c3CO2)o1 (centres unmarked) | -46.43 | -35.19
[H][C@@]12NC(=O)N[C@@H](c3ccccc3)[C@]1([H])CCCO2 | 8.681 | 6.18
Cc1nn(C)c(C)c1CCNC(C)c1ccc(-n2ccnc2C)cc1 (centres unmarked) | 24.57 & -2.912 | 6.749
CC(C)[C@H](NC(=O)c1cccc(CCC(C)(C)O)c1)C(N)=O | -3.467 & -25.25 | -5.792
Cc1cccnc1CN1CCN(C(=O)CCn2ccccc2=O)CC1 | -17.43 | -20.38
Cc1ccc2cc(C(=O)N3CCC(O)(C(F)(F)F)CC3)ccc2n1 | -8.322 | -49.33
Cc1cccc(NC(=O)c2ccc(OCc3nnnn3C)cc2)n1 | -49.06 | -4.461
Cc1nc(CNc2ccccc2CCC(F)(F)F)cs1 | 8.339 & 13.81 | 15.29
CCN1CCCC1CNC(=O)Cc1c(-c2ccc(Cl)cc2)n[nH]c1C (centres unmarked) | 6.366 & -6.242 | -0.3461
CC(C)(C)c1noc(CCC(=O)N2CCN(Cc3ccco3)CC2)n1 | 13.71 | 7.924
Cc1nc(NS(=O)(=O)c2cccc(F)c2C)no1 | -7.078 & 10.58 | -2.429
CC(C)(C)n1cc(CNC2CCN(C(=O)c3ccoc3)CC2)cn1.Cl | 39.82 | 6.935
CCC(CNC(=O)c1c(C)nn(C)c1OC)Oc1ccccc1 (centres unmarked) | 12.37 | -0.9455
O=C(Cc1ccc2c(c1)CCC2)N1CCN(c2cnccn2)CC1 | 5.066 & -6.556 | 5.55
COCCOc1ccc(NC(=O)N(CC2CCOC2)C2CC2)cn1 (centres unmarked) | - | -53.48
CCOc1ccccc1Nc1nc2c(C)nn(C)c2c(=O)n1C | -6.95 | 8.312
CCCc1ccc(S(=O)(=O)NC(=O)CCc2cscn2)cc1 | 19.45 | 9.379
Cc1nn(-c2ccc(C(=O)O)cc2)c2c1C(C(F)(F)F)SCC(=O)N2 (centres unmarked) | -15.66 & 1.645 | -17.41
Cc1ccsc1-c1nnc(C2CCN(Cc3ccc(F)cc3)CC2)o1 | 14.77 | 1.777
CCc1nnc2n1CCN(Cc1csc(-c3ccccc3F)n1)C2 | 9.265 | -14.54
C[C@@H](NC(=O)c1cccs1)c1onc(-c2cccnc2)c1C(=O)O.Cl | -9.816 & -3.824 | -22.04
COC(=O)N1CCc2ccccc2C1C(=O)NCc1ccncc1 (centres unmarked) | -35.4 & 5.957 | -2.238
Cc1ccc(C(=O)N2CCN(Cc3ccccc3)CC2)n1C | -23.18 | 5.644
CCCN(CCC)S(=O)(=O)c1cc(NC(C)=O)ccc1C | -2.52 & -1.965 | 1.362 & -11.57
CCOC(=O)N1[C@@H](c2ccco2)[C@@H](C(=O)NC)C[C@]12CCCCNC2=O | -28.21 | -27.77
COc1ccc(-c2cn(CCSc3ncn[nH]3)nn2)cn1 | 11.13 | 5.815
Cl.O=C(NC1CCCC1)c1ccc(C2CCCNC2)nc1 (centres unmarked) | -24.81 | -2.396
COc1cc(CNCc2ccnc(N3CCCCC3)c2)cc(OC)c1 | 16.68 | 0.617
CC1CCC(NC(=O)Nc2ccc(CC(=O)N(C)C)cc2)CC1 (centres unmarked) | -13.8 | -9.132
COCc1cnc2n1CCN(S(=O)(=O)N(C)C)C2C (centres unmarked) | -13.66 & -6.576 | 4.452

The first 4 entries again:

Compound	Mtb glucose medium	Mtb cholesterol medium
CC(N)Cc1ccccc1Sc1ccccc1.O=C(O)/C=C\C(=O)O (centres unmarked)	15.82 & 21.36	-25
[H][C@@]12CS(=O)(=O)C[C@]1([H])N(Cc1cnn(-c3ccc(F)cc3)c1)CCN2C	-1.989	-11.38
Cc1cc(C)n(C2CN(CC(=O)N(C)Cc3ccco3)C2)n1	-2.426	-0.9709 & -1.481
CCc1ccc(OCC(O)CN2CCN(CC)CC2)cc1 (centres unmarked)	-30.97	-2.917